Drawing on PubChem BioAssay AID624404 (Broad Institute, 2012), this text covers activity increase (luciferase signal) for one compound.

This is a selection; strong and weak results do not stand in their true shares. Measured potencies and affinities stand elsewhere. Records with an inconclusive call do not appear. Activity calls are given as the source filed them.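 The calls were made as follows: active = luciferase signal rise whose fitted curve crosses a set activity limit at or below the top valid tested dose; inconclusive = flat fit with 30 to 70% rise, or poor fit; inactive = signal falling, flat within 30%, or crossing above top dose.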

The nature of this assay: luciferase activators in glycosylation-insensitive reporter cells, dose response, counter-screen for N-linked glycosylation inhibitor project, D54 LucT cells, luminescence, cherry pick (AID 624404).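 Also: 0% = median neutral control signal and 100% = twice that signal.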 The note with it: D54 LucT luciferase reporter counterscreen, 24 h; at 19.5 µM (top of the series). On the technique in general: A counterscreen serves to expose hits that act by an unwanted route or on another target.
Consider `O=C1NN(c2ccccc2)C(=O)/C1=C/c1ccc(Sc2ccc(Cl)cc2)o1`, for which the activity increase (luciferase signal) is inactive: 5.17%.
